Results reported in paper PMC4707158.

Chains of the proteins cited; added tags and fusions are not shown.
UniProt Q9H4L4: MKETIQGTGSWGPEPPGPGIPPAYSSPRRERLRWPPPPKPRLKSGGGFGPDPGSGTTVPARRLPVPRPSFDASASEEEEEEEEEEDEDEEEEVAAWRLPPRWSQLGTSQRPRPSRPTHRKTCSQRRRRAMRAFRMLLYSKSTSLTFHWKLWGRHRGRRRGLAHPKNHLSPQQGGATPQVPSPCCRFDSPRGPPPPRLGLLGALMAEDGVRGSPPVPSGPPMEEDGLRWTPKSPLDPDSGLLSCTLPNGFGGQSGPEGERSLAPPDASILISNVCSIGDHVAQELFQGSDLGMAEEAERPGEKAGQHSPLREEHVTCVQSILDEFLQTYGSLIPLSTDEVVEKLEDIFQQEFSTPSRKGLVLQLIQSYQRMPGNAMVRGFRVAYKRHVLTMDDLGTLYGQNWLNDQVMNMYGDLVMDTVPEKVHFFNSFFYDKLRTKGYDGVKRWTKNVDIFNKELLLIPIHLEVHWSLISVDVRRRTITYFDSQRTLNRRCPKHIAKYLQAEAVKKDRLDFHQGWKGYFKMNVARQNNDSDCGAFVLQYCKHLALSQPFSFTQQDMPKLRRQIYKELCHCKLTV

Biological target: FLAG-SENP3 (UniProt Q9H4L4)
Experiment: affinity purification with mass spectrometry; 293T cells transfected with vector FLAG-pcDNA or FLAG-SENP3; co-IP with anti-FLAG antibody; gel silver stained, bands of approximately 100 kDa examined by MS; Table 1 lists the hits that were also increased in lysate of SENP3-transfected cells

| Binder | binding |
| --- | --- |
| MAGED1 (protein, UniProt Q9Y5V3 1-778) MAQKMDCGAGLLGFQAEASVEDSALLMQTLMEAIQISEAPPTNQATAAASPQSSQPPTANEMADIQVSAAAARPKSAFKVQNATTKGPNGVYDFSQAHNAKDVPNTQPKAAFKSQNATPKGPNAAYDFSQAATTGELAANKSEMAFKAQNATTKVGPNATYNFSQSLNANDLANSRPKTPFKAWNDTTKAPTADTQTQNVNQAKMATSQADIETDPGISEPDGATAQTSADGSQAQNLESRTIIRGKRTRKINNLNVEENSSGDQRRAPLAAGTWRSAPVPVTTQNPPGAPPNVLWQTPLAWQNPSGWQNQTARQTPPARQSPPARQTPPAWQNPVAWQNPVIWPNPVIWQNPVIWPNPIVWPGPVVWPNPLAWQNPPGWQTPPGWQTPPGWQGPPDWQGPPDWPLPPDWPLPPDWPLPTDWPLPPDWIPADWPIPPDWQNLRPSPNLRPSPNSRASQNPGAAQPRDVALLQERANKLVKYLMLKDYTKVPIKRSEMLRDIIREYTDVYPEIIERACFVLEKKFGIQLKEIDKEEHLYILISTPESLAGILGTTKDTPKLGLLLVILGVIFMNGNRASEAVLWEALRKMGLRPGVRHPLLGDLRKLLTYEFVKQKYLDYRRVPNSNPPEYEFLWGLRSYHETSKMKVLRFIAEVQKRDPRDWTAQFMEAADEALDALDAAAAEAEARAEARTRMGIGDEAVSGPWSWDDIEFELLTWDEEGDFGDPWSRIPFTFWARYHQNARSRFPQTFAGPIIGPGGTASANFAANFGAIGFFWVE | binds |
| NUP93 (protein, UniProt Q8N1F7 1-819) MDTEGFGELLQQAEQLAAETEGISELPHVERNLQEIQQAGERLRSRTLTRTSQETADVKASVLLGSRGLDISHISQRLESLSAATTFEPLEPVKDTDIQGFLKNEKDNALLSAIEESRKRTFGMAEEYHRESMLVEWEQVKQRILHTLLASGEDALDFTQESEPSYISDVGPPGRSSLDNIEMAYARQIYIYNEKIVNGHLQPNLVDLCASVAELDDKSISDMWTMVKQMTDVLLTPATDALKNRSSVEVRMEFVRQALAYLEQSYKNYTLVTVFGNLHQAQLGGVPGTYQLVRSFLNIKLPAPLPGLQDGEVEGHPVWALIYYCMRCGDLLAASQVVNRAQHQLGEFKTWFQEYMNSKDRRLSPATENKLRLHYRRALRNNTDPYKRAVYCIIGRCDVTDNQSEVADKTEDYLWLKLNQVCFDDDGTSSPQDRLTLSQFQKQLLEDYGESHFTVNQQPFLYFQVLFLTAQFEAAVAFLFRMERLRCHAVHVALVLFELKLLLKSSGQSAQLLSHEPGDPPCLRRLNFVRLLMLYTRKFESTDPREALQYFYFLRDEKDSQGENMFLRCVSELVIESREFDMILGKLENDGSRKPGVIDKFTSDTKPIINKVASVAENKGLFEEAAKLYDLAKNADKVLELMNKLLSPVVPQISAPQSNKERLKNMALSIAERYRAQGISANKFVDSTFYLLLDLITFFDEYHSGHIDRAFDIIERLKLVPLNQESVEERVAAFRNFSDEIRHNLSEVLLATMNILFTQFKRLKGTSPSSSSRPQRVIEDRDSQLRSQARTLITFAGMIPYRTSGDTNARLVQMEVLMN | binds |
| GANAB (protein, UniProt Q14697 29-944) ITLAVDRSNFKTCEESSFCKRQRSIRPGLSPYRALLDSLQLGPDSLTVHLIHEVTKVLLVLELQGLQKNMTRFRIDELEPRRPRYRVPDVLVADPPIARLSVSGRDENSVELTMAEGPYKIILTARPFRLDLLEDRSLLLSVNARGLLEFEHQRAPRVSQGSKDPAEGDGAQPEETPRDGDKPEETQGKAEKDEPGAWEETFKTHSDSKPYGPMSVGLDFSLPGMEHVYGIPEHADNLRLKVTEGGEPYRLYNLDVFQYELYNPMALYGSVPVLLAHNPHRDLGIFWLNAAETWVDISSNTAGKTLFGKMMDYLQGSGETPQTDVRWMSETGIIDVFLLLGPSISDVFRQYASLTGTQALPPLFSLGYHQSRWNYRDEADVLEVDQGFDDHNLPCDVIWLDIEHADGKRYFTWDPSRFPQPRTMLERLASKRRKLVAIVDPHIKVDSGYRVHEELRNLGLYVKTRDGSDYEGWCWPGSAGYPDFTNPTMRAWWANMFSYDNYEGSAPNLFVWNDMNEPSVFNGPEVTMLKDAQHYGGWEHRDVHNIYGLYVHMATADGLRQRSGGMERPFVLARAFFAGSQRFGAVWTGDNTAEWDHLKISIPMCLSLGLVGLSFCGADVGGFFKNPEPELLVRWYQMGAYQPFFRAHAHLDTGRREPWLLPSQHNDIIRDALGQRYSLLPFWYTLLYQAHREGIPVMRPLWVQYPQDVTTFNIDDQYLLGDALLVHPVSDSGAHGVQVYLPGQGEVWYDIQSYQKHHGPQTLYLPVTLSSIPVFQRGGTIVPRWMRVRRSSECMKDDPITLFVALSPQGTAQGELFLDDGHTFNYQTRQEFLLRRFSFSGNTLVSSSADPEGHFETPIWIERVVIIGAGKPAAVVLQTKGSPESRLSFQHDPETSVLVLRKPGINVASDWSIHLR | binds |
| QARS (protein, UniProt P47897 1-775) MAALDSLSLFTSLGLSEQKARETLKNSALSAQLREAATQAQQTLGSTIDKATGILLYGLASRLRDTRRLSFLVSYIASKKIHTEPQLSAALEYVRSHPLDPIDTVDFERECGVGVIVTPEQIEEAVEAAINRHRPQLLVERYHFNMGLLMGEARAVLKWADGKMIKNEVDMQVLHLLGPKLEADLEKKFKVAKARLEETDRRTAKDVVENGETADQTLSLMEQLRGEALKFHKPGENYKTPGYVVTPHTMNLLKQHLEITGGQVRTRFPPEPNGILHIGHAKAINFNFGYAKANNGICFLRFDDTNPEKEEAKFFTAICDMVAWLGYTPYKVTYASDYFDQLYAWAVELIRRGLAYVCHQRGEELKGHNTLPSPWRDRPMEESLLLFEAMRKGKFSEGEATLRMKLVMEDGKMDPVAYRVKYTPHHRTGDKWCIYPTYDYTHCLCDSIEHITHSLCTKEFQARRSSYFWLCNALDVYCPVQWEYGRLNLHYAVVSKRKILQLVATGAVRDWDDPRLFTLTALRRRGFPPEAINNFCARVGVTVAQTTMEPHLLEACVRDVLNDTAPRAMAVLESLRVIITNFPAAKSLDIQVPNFPADETKGFHQVPFAPIVFIERTDFKEEPEPGFKRLAWGQPVGLRHTGYVIELQHVVKGPSGCVESLEVTCRRADAGEKPKAFIHWVSQPLMCEVRLYERLFQHKNPEDPTEVPGGFLSDLNLASLHVVDAALVDCSVALAKPFDKFQFERLGYFSVDPDSHQGKLVFNRTVTLKEDPGKV | binds |

Results, then the binder that gave them:

| binding | Binder |
| --- | --- |
| binds | ALDH18A1 (protein, UniProt P54886 1-795) MLSQVYRCGFQPFNQHLLPWVKCTTVFRSHCIQPSVIRHVRSWSNIPFITVPLSRTHGKSFAHRSELKHAKRIVVKLGSAVVTRGDECGLALGRLASIVEQVSVLQNQGREMMLVTSGAVAFGKQRLRHEILLSQSVRQALHSGQNQLKEMAIPVLEARACAAAGQSGLMALYEAMFTQYSICAAQILVTNLDFHDEQKRRNLNGTLHELLRMNIVPIVNTNDAVVPPAEPNSDLQGVNVISVKDNDSLAARLAVEMKTDLLIVLSDVEGLFDSPPGSDDAKLIDIFYPGDQQSVTFGTKSRVGMGGMEAKVKAALWALQGGTSVVIANGTHPKVSGHVITDIVEGKKVGTFFSEVKPAGPTVEQQGEMARSGGRMLATLEPEQRAEIIHHLADLLTDQRDEILLANKKDLEEAEGRLAAPLLKRLSLSTSKLNSLAIGLRQIAASSQDSVGRVLRRTRIAKNLELEQVTVPIGVLLVIFESRPDCLPQVAALAIASGNGLLLKGGKEAAHSNRILHLLTQEALSIHGVKEAVQLVNTREEVEDLCRLDKMIDLIIPRGSSQLVRDIQKAAKGIPVMGHSEGICHMYVDSEASVDKVTRLVRDSKCEYPAACNALETLLIHRDLLRTPLFDQIIDMLRVEQVKIHAGPKFASYLTFSPSEVKSLRTEYGDLELCIEVVDNVQDAIDHIHKYGSSHTDVIVTEDENTAEFFLQHVDSACVFWNASTRFSDGYRFGLGAEVGISTSRIHARGPVGLEGLLTTKWLLRGKDHVVSDFSEHGSLKYLHENLPIPQRNTN |
| binds | RRM1 (protein, UniProt P23921 1-792) MHVIKRDGRQERVMFDKITSRIQKLCYGLNMDFVDPAQITMKVIQGLYSGVTTVELDTLAAETAATLTTKHPDYAILAARIAVSNLHKETKKVFSDVMEDLYNYINPHNGKHSPMVAKSTLDIVLANKDRLNSAIIYDRDFSYNYFGFKTLERSYLLKINGKVAERPQHMLMRVSVGIHKEDIDAAIETYNLLSERWFTHASPTLFNAGTNRPQLSSCFLLSMKDDSIEGIYDTLKQCALISKSAGGIGVAVSCIRATGSYIAGTNGNSNGLVPMLRVYNNTARYVDQGGNKRPGAFAIYLEPWHLDIFEFLDLKKNTGKEEQRARDLFFALWIPDLFMKRVETNQDWSLMCPNECPGLDEVWGEEFEKLYASYEKQGRVRKVVKAQQLWYAIIESQTETGTPYMLYKDSCNRKSNQQNLGTIKCSNLCTEIVEYTSKDEVAVCNLASLALNMYVTSEHTYDFKKLAEVTKVVVRNLNKIIDINYYPVPEACLSNKRHRPIGIGVQGLADAFILMRYPFESAEAQLLNKQIFETIYYGALEASCDLAKEQGPYETYEGSPVSKGILQYDMWNVTPTDLWDWKVLKEKIAKYGIRNSLLIAPMPTASTAQILGNNESIEPYTSNIYTRRVLSGEFQIVNPHLLKDLTERGLWHEEMKNQIIACNGSIQSIPEIPDDLKQLYKTVWEISQKTVLKMAAERGAFIDQSQSLNIHIAEPNYGKLTSMHFYGWKQGLKTGMYYLRTRPAANPIQFTLNKEKLKDKEKVSKEEEEKERNTAAMVCSLENRDECLMCGS |
| binds | MOGS (protein, UniProt Q13724 1-837) MARGERRRRAVPAEGVRTAERAARGGPGRRDGRGGGPRSTAGGVALAVVVLSLALGMSGRWVLAWYRARRAVTLHSAPPVLPADSSSPAVAPDLFWGTYRPHVYFGMKTRSPKPLLTGLMWAQQGTTPGTPKLRHTCEQGDGVGPYGWEFHDGLSFGRQHIQDGALRLTTEFVKRPGGQHGGDWSWRVTVEPQDSGTSALPLVSLFFYVVTDGKEVLLPEVGAKGQLKFISGHTSELGDFRFTLLPPTSPGDTAPKYGSYNVFWTSNPGLPLLTEMVKSRLNSWFQHRPPGAPPERYLGLPGSLKWEDRGPSGQGQGQFLIQQVTLKIPISIEFVFESGSAQAGGNQALPRLAGSLLTQALESHAEGFRERFEKTFQLKEKGLSSGEQVLGQAALSGLLGGIGYFYGQGLVLPDIGVEGSEQKVDPALFPPVPLFTAVPSRSFFPRGFLWDEGFHQLVVQRWDPSLTREALGHWLGLLNADGWIGREQILGDEARARVPPEFLVQRAVHANPPTLLLPVAHMLEVGDPDDLAFLRKALPRLHAWFSWLHQSQAGPLPLSYRWRGRDPALPTLLNPKTLPSGLDDYPRASHPSVTERHLDLRCWVALGARVLTRLAEHLGEAEVAAELGPLAASLEAAESLDELHWAPELGVFADFGNHTKAVQLKPRPPQGLVRVVGRPQPQLQYVDALGYVSLFPLLLRLLDPTSSRLGPLLDILADSRHLWSPFGLRSLAASSSFYGQRNSEHDPPYWRGAVWLNVNYLALGALHHYGHLEGPHQARAAKLHGELRANVVGNVWRQYQATGFLWEQYSDRDGRGMGCRPFHGWTSLVLLAMAEDY |

Results are given in words; binding and its absence hold for the method and conditions named. Binding seen in cells or lysates may run through a third protein. A yes stands for co-enrichment or nearness to the bait. Other partners may have been found.
